# Assay results reported in doi:10.1101/364067.
# Amino acid sequences for entries named in this document (tags omitted). A change or cut given only in a name is not applied to a line headed by its entry.
# UniProt P12520, whole entry: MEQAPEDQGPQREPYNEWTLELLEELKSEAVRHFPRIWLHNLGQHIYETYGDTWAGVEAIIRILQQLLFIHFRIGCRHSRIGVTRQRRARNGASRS
# B1: BBX (protein, UniProt Q8WY36 1-941)
# chain: MKGSNRNKDHSAEGEGVGKRPKRKCLQWHPLLAKKLLDFSEEEEEEDEEEDIDKVQLLGADGLEQDVGETEDDESPEQRARRPMNAFLLFCKRHRSLVRQEHPRLDNRGATKILADWWAVLDPKEKQKYTDMAKEYKDAFMKANPGYKWCPTTNKPVKSPTPTVNPRKKLWAFPSDSSRDLPSPKKAKTEEMPQLNFGMADPTQMGGLSMLLLAGEHALGTPEVSSGTCRPDVSESPELRQKSPLFQFAEISSSTSHSDASTKQCQTSALFQFAEISSNTSQLGGAEPVKRCGKSALFQLAEMCLASEGMKMEESKLIKAKESDGGRIKELEKGKEEKEIKMEKTDETRLQKEAEFEKSAKENLRDSKELRNFEALQIDDIMAIKMEDPKEIRKEELEEDHKCSHFPDFSYSASSKIIISDVPSRKDHMCHPHGIMIIEDPAALNKPEKLKKKKKKSKMDRHGNDKSTPKKTCKKRQSSESDIESVIYTIEAVAKGDWGIEKLGDTPRKKVRTSSSGKGSILDAKPPKKKVKSREKKMSKEKSSDTTKESRPPDFISISASKNISGETPEGIKAEPLTPMEDALPPSLSGQAKPEDSDCHRKIETCGSRKSERSCKGALYKTLVSEGMLTSLRANVDRGKRSSGKGNSSDHEGCWNEESWTFSQSGTSGSKKFKKTKPKEDCLLGSAKLDEEFEKKFNSLPQYSPVTFDRKCVPVPRKKKKTGNVSSEPTKTSKGPFQSQKKNLFHKIVSKYKHKKEKPNVPEKGSGDKWSNKQLFLDAIHPTEAIFSEDRNTMEPVHKVKNIPSIFNTPEPTTTQEPLVGSQKRKARKTKITHLVRTADGRVSPAGGTLDDKPKEQLQRSLPKATETDCNDKCSHNTEVGETRSSTPEMPAVSAFFSLAALAEVAAMENVHRGQRSTPLTHDGQPKEMPQAPVLISCADQ
# Target: 3xHA tagged Vpr (HIV-1 NL4-3 Vpr) (HIV-1 (NL4-3)) (UniProt P12520)
# Assay: affinity purification with mass spectrometry
row,Molecule,binding
1,KIF18A (from UniProt Q8NI77 1-898),binds
2,SMN1 (from UniProt Q16637 1-294),binds
3,B1,binds

# No constants are given. Whether binding was seen depends on the method and setting. Binding seen in cells or lysates may run through a third protein. Here binding means that the protein was enriched with, or labelled near, the bait; the list need not be complete.
